Read-outs that look alike come from different tables or passages of the source.
Legend:
[1] = tested on: undifferentiated ReNcell VM NPCs; assay: cells; conditions: Homo sapiens, 72 h
Protocol: (§1) On-chip cultures of undifferentiated and 10-day differentiated NPCs were stamped with WellChips filled with compound-containing solutions and incubated for 72 hr prior to viability assessment. Vehicle-control normalized viabilities were plotted against compound concentration to generate dose-response plots (Figures 5A and S4). […] The sigmoidal fits for undifferentiated and differentiating NPCs were compared to assess whether differential sensitivities (i.e., different IC50 values) existed for the screened compounds.
(§2) Cell viability was determined in 3D on-chip cultures using a mammalian cell viability assay (LIVE/DEAD, Invitrogen). Prior to the assay, dead cell controls were prepared with 30 min incubation in a WellChip containing either […] 0.5% (w/v) saponin-DMEM/F12 medium in its microwells. […] After staining, PillarChips were rinsed twice with warm DPBS and incubated in DPBS containing 50 mM trehalose (Sigma) for 10 min before rapid drying with nitrogen and storage in the dark. Dried PillarChips were imaged with a Thermo Scientific Cellomics ArrayScan VTI high-content system.
(§3) Undifferentiated and differentiated microchip cultures were prepared as described above. Chemicals were purchased from Sigma or the NIH Small Molecule Repository (Table S2). Concentrated stocks were prepared and diluted into ReNcell Maintenance Medium to prepare the highest screened concentration solution for each compound. Four-fold serial dilutions were made in ReNcell Maintenance Medium, with all solutions having a final concentration of 0.5% or 1% DMSO (v/v) and 20 μg/mL Matrigel. For undifferentiated cultures, the solutions also contained 20 ng/mL of EGF and FGF2. These solutions were printed into WellChips, covered with a gas-permeable membrane, and warmed at 37°C for at least 5 min before stamping with cells. Each WellChip contained six compounds each at six concentrations (n = 10 biological replicates for each concentration) and the appropriate medium containing 0.5% or 1% DMSO for vehicle and dead controls (n = 32 biological replicates per control). PillarChip cultures were incubated with compounds for 72 hr with daily medium exchange to freshly prepared WellChips containing compounds at the appropriate concentrations. […] On-chip toxicity screens were repeated three times for undifferentiated and differentiated cultures. […]

[2] = tested on: differentiating ReNcell VM NPCs; assay: cells; conditions: Homo sapiens
Protocol: as §1, §2, §3

## CN(C)CCOC(c1ccccc1)c1ccccc1 [Diphenhydramine]
[1]; read-out: Viability Effects Undifferentiated IC50
  IC50: 257 µM
[1]; read-out: Viability Effects Undifferentiated log(IC50 ± SEM) (converted)
  IC50: 257 µM
[2]; read-out: Viability Effects Differentiating IC50
  IC50: 189 µM
[2]; read-out: Viability Effects Differentiating log(IC50 ± SEM) (converted)
  IC50: 200 µM

From publication PMC5106528, “High-Throughput Toxicity and Phenotypic Screening of 3D Human Neural Progenitor Cell Cultures on a Microarray Chip Platform” (Stem Cell Reports, 2016)
